In PubChem BioAssay AID504444 (National Center for Advancing Translational Sciences (NCATS), 2011):
Out of some 360,000 compounds screened, about 7,500 (2.1%) were called active. The shares of active, inactive and inconclusive entries below differ from those in the screen. The call rests on the fitted dose curve; in most records, active means well fitted inhibition curve with a large enough effect; inconclusive means small, poorly fitted or top-dose-only effect, or effect the other way; inactive means flat fitted curve, though single readings scatter. Where the call is inconclusive, the potency comes from a doubtful curve fit.

experiment: Nrf2 qHTS screen for inhibitors; conditions: A549 ARE-Fluc reporter, luciferase luminescence, 18-24 h; activity change, negative = inhibition: at 46 µM (top of the series); further: nearly all actives have a fitted effect of over 60% in size
In short: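 Concentration-response testing used A549 ARE_Fluc cells at 5000 cells/well. Following an 18-24 h compound incubation, viability was read by fluorescence (Ex 405/Em 525) and luciferase output by luminescence.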
On the % scale 0 is the no-effect control and ±100 the full control effect; potency means the concentration at half of the fitted maximal effect.

Row | Structure (SMILES) | Potency | activity change, negative = inhibition
1 | O=c1oc2ccccc2c2oc3cc(O)c(O)cc3c12 | inconclusive: 32.6 µM [falling, partial curve, poor fit] | –
2 | Cc1occc1C(=O)Nc1sc2c(c1C(N)=O)CCC(C(C)(C)C)C2 (stereo not drawn) | – | inactive: 7.39%
3 | O=C(/C=C/c1ccc(Cl)cc1Cl)Nc1cccc(S(=O)(=O)NC2=NCCC2)c1 | inconclusive: 29.1 µM [falling, single point] | –
4 | CCn1c(NCCc2ccc(OC)c(OC)c2)nc2c1c(=O)n(C)c(=O)n2C | inconclusive: 1.84 µM [falling, full curve] | –
5 | CC(C)COc1ccc(CN=C(N)N=C(N)N)cc1Cl | – | inactive: 4.8%
6 | COc1cccc(C2CC(=O)Nc3cc4c(cc32)OCCO4)c1OC (stereo not drawn) | inconclusive: 29.1 µM [falling, single point] | –
7 | Cc1ccccc1Cn1c(SCc2ccc(C(=O)NC(C)c3ccccc3)cc2)nc2ccncc21 (stereo not drawn) | – | inactive: -10.8%
8 | CC(C)[C@@H]1CC[C@@H](C)c2c(-c3ccccc3)n[nH]c21 | inconclusive: 29.1 µM [falling, single point] | –
9 | COc1ccccc1C(=O)Nc1ccc(S(=O)(=O)N2CCCC2)cc1 | inconclusive: 10.3 µM [falling, partial curve] | –
10 | O=C(Cc1ccc(Cl)cc1)Nc1cccc(-c2nnc(-c3ccco3)o2)c1 | inconclusive: 1.03 µM [falling, full curve, poor fit] | –
11 | Fc1ccc(NCc2cccn2-c2nnc(N3CCOCC3)s2)cc1 | inconclusive: 29.1 µM [activator, single point] | –
12 | COc1ccccc1N1CCN(C(=O)c2cc3cc(Cl)ccc3[nH]2)CC1 | inconclusive: 29.1 µM [falling, partial curve, poor fit] | –
13 | Cc1cccc(COCC(Cc2ccccc2)N2CCN(C(=O)c3ccc(C(F)(F)F)cc3)CCC2=O)c1 (stereo not drawn) | inconclusive: 18.4 µM [falling, single point] | –
14 | O=C(NCCc1cccs1)c1ccc(Cn2c(SCc3ccc(F)cc3)nc3cccnc32)cc1 | active: 18.4 µM | –
15 | Fc1cc(F)c(C2SCCN2C(=S)Nc2cccc(C(F)(F)F)c2)c(F)c1 (stereo not drawn) | inconclusive: 29.1 µM [falling, single point] | –
16 | Cc1cccc(C(=O)NNC(=O)c2ccc(NC(=O)C(C)(C)C)cc2)c1 | inconclusive: 20.6 µM [activator, single point] | –
17 | COc1ccc(CN2CCn3ncc(C(=O)Nc4cc(C)cc(C)c4)c3C2=O)cc1 | inconclusive: 20.6 µM [falling, single point] | –
18 | Cn1c2ccccc2c2c(C(=O)N3CCN(c4ccccc4)CC3)cn(C3CCCC3)c(=O)c21 | inconclusive: 25.9 µM [falling, single point] | –
19 | Cc1cc(N)n(-c2cc(C)c3ccccc3n2)n1 | inconclusive: 23.1 µM [activator, single point] | –
20 | Cc1ccc2cc(C#N)c(N3CCCN(C(=O)C4CCCO4)CC3)nc2c1 (stereo not drawn) | inconclusive: 20.6 µM [falling, partial curve, poor fit] | –
21 | CC(C)(C)n1cnc2cc(NC(=O)c3ccco3)ccc21 | inconclusive: 1.84 µM [activator, full curve] | –

Row | Structure (SMILES) | Potency | activity change, negative = inhibition
22 | CCC1=NN(C(=O)c2ccc([N+](=O)[O-])cc2)C(O)(c2ccccc2)C1 (stereo not drawn) | inconclusive: 29.1 µM [falling, partial curve, poor fit] | –
23 | CC(=O)Nc1nnc(SCc2ccc(F)cc2)s1 | inconclusive: 3.66 µM [activator, full curve, poor fit] | –
24 | CCC(O)CNC(=O)NC(=C(Cl)Cl)c1ccc(C)c(F)c1 (stereo not drawn) | active: 18.4 µM | –
25 | COc1ccc(C(=O)/C=C/c2ccccc2)c(O)c1 | – | inactive: -12.3%
26 | CCOC(=O)C1(CCc2ccccc2)CCN(Cc2ccc(C(=O)OC)cc2)CC1 | inconclusive: 29.1 µM [falling, single point] | –
27 | Cc1cccc(Cn2c(=O)n(-c3ccc(CC(=O)NCc4ccco4)cc3)c(=O)c3sccc32)c1 | – | inactive: -25.6%
28 | Cc1cccc(NC(=S)NCc2cccs2)c1 | inconclusive: 29.1 µM [falling, single point] | –
29 | CC(C)(C)n1ncc2c(=O)n(CC(=O)NCc3ccco3)cnc21 | inconclusive: 9.2 µM [activator, partial curve] | –
30 | COc1ccc(C2(C)NC(=O)N(CC(=O)NC(C)c3ccc(CC(C)C)cc3)C2=O)cc1 (stereo not drawn) | inconclusive: 18.4 µM [falling, single point] | –
31 | COc1cccc(C(=O)NC2CC3CCCC(C2)N3S(=O)(=O)c2ccccc2)c1 (stereo not drawn) | inconclusive: 29.1 µM [falling, single point] | –
32 | COc1ccc(/C=N/NC(=S)NCc2ccccc2)cc1OC | inconclusive: 29.1 µM [falling, single point] | –
33 | Cc1cccc(NC(=O)c2cccc([N+](=O)[O-])c2O)c1C | inconclusive: 29.1 µM [falling, single point] | –
34 | Cc1onc(-c2ccccc2)c1C(=O)NNC(=S)NC(=O)c1ccc2c(c1)OCO2 | inconclusive: 25.9 µM [falling, single point] | –
35 | CCn1c(CN(C)c2ccccc2)nc2ccccc21 | inconclusive: 8.2 µM [falling, partial curve, poor fit] | –
36 | CCCCN(C(C)=O)c1ccc2c(c1)C1CC2CCN1C(=O)OCc1ccccc1 (stereo not drawn) | active: 23.1 µM | –
37 | Cc1ccc(CCc2nnc(SCC(=O)Nc3cc(Cl)ccc3Cl)n2-c2ccccc2)o1 | inconclusive: 29.1 µM [falling, single point] | –
38 | CCCc1ccc(-c2csc(NC(=O)C3=COCCO3)n2)cc1 | inconclusive: 29.1 µM [falling, single point] | –
39 | COc1cccc(NC(=O)CCc2ccccc2)c1 | inconclusive: 14.6 µM [activator, partial curve] | –
40 | NC(N)=NC(=O)Cc1c(Cl)cccc1Cl | active: 8.2 µM | –
41 | Cc1cc(C)cc(N(CC(=O)N2CC=C(c3ccccc3)CC2)S(=O)(=O)c2c(C)noc2C)c1 | inconclusive: 25.9 µM [falling, single point] | –
42 | CC(=O)c1cccc(NC(=O)NNC(=O)c2ccc(Cl)cc2Cl)c1 | inconclusive: 29.1 µM [activator, single point] | –

Row | Structure (SMILES) | Potency | activity change, negative = inhibition
43 | Cc1ccc(NC(=S)Nc2cc(C(=O)O)ccc2N2CC3CC(C2)c2cccc(=O)n2C3)cc1C (stereo not drawn) | inconclusive: 7.31 µM [activator, partial curve, poor fit] | –
44 | O=C(NCc1ccc2c(c1)OCO2)c1ccc2c(=O)n(C3CCCC3)c(=O)[nH]c2c1 | active: 8.2 µM | –
45 | COC(=O)c1ccc2c(c1)C(NC(C)=O)CCc1cc(OC)c(OC)c(OC)c1-2 (stereo not drawn) | inconclusive: 0.259 µM [activator, full curve, poor fit] | –
46 | Cc1ccc(NC(=O)c2ncn(CC(=O)N[C@H](C)c3cccc4ccccc34)n2)cc1C | – | inactive: -19.9%
47 | CSc1n[nH]c(-c2sccc2OCc2ccc(C)cc2)n1 | inconclusive: 20.6 µM [falling, single point] | –
48 | C#CCOCCOCCOCCNc1nc(N2CCN(C(=O)CCCCCCCCCCNC(=O)[C@H](CCCCN)n3cc(C[C@@H](C)CC)nn3)CC2)nc(N2CCN(C(=O)CCCCCCCCCCNC(=O)[C@@H]([C@H](C)O)n3cc(C)nn3)CC2)n1 | inconclusive: 29.1 µM [falling, single point] | –
49 | COc1ccccc1C1=NOC(C(=O)N2CCN(C(=O)c3ccco3)CC2)C1 (stereo not drawn) | – | inactive: 0.709%
50 | NNC(=O)c1cc2c(N3CCC(Cc4ccccc4)CC3)ncnc2s1 | active: 25.9 µM | –
51 | CCOC(=O)C1CCCN(CC(O)COc2ccccc2C(C)=O)C1 (stereo not drawn) | inconclusive: 11.6 µM [activator, partial curve, poor fit] | –
52 | Cc1cccc(-c2nc3ccccc3c(=O)[nH]2)c1 | inconclusive: 20.6 µM [activator, partial curve, poor fit] | –
53 | CC1Cc2ccccc2N1C(=O)CSc1nnc(C2CC2)n1C (stereo not drawn) | inconclusive: 0.231 µM [activator, full curve, poor fit] | –
54 | O=C(Cc1ccc(Cl)c(Cl)c1)Nc1ccccc1N1CCOCC1 | inconclusive: 25.9 µM [falling, partial curve, poor fit] | –
55 | Cc1ccccc1OCC(=O)O/N=C(\N)Cc1cccs1 | inconclusive: 32.6 µM [activator, single point] | –
56 | COc1ccc(NC(=O)c2cc(S(=O)(=O)N3CCCCC3)ccc2OC)cc1 | inconclusive: 10.3 µM [falling, partial curve] | –
57 | COCC1CCN(C(=O)c2ccc(OC)c(OC3CCN(C(C)C)CC3)c2)CC1 | inconclusive: 16.4 µM [activator, partial curve, poor fit] | –
58 | Cc1ccc(Oc2nc(CN3CCOCC3)nc3sc4c(c23)CCC(C)C4)cc1C (stereo not drawn) | inconclusive: 23.1 µM [falling, partial curve, poor fit] | –
59 | C=CCN=c1scc(-c2ccc(F)cc2)n1/N=C/c1ccccn1 | inconclusive: 2.06 µM [activator, partial curve, poor fit] | –
60 | COc1cc(C(=O)c2ccccc2Cl)c([N+](=O)[O-])cc1OC | inconclusive: 29.1 µM [falling, single point] | –
61 | CNc1cc(CSc2ccc(Cl)cc2)nc(C)n1 | inconclusive: 14.6 µM [activator, partial curve] | –
62 | N#C/C(=C\c1ccc(N2CCOCC2)o1)C(=O)NC1CCCCC1 | inconclusive: 10.3 µM [activator, partial curve, poor fit] | –
63 | Cc1cc(C)c2oc(C(=O)Nc3ccc(S(=O)(=O)N4CCCC(C)C4)cc3)cc(=O)c2c1 (stereo not drawn) | inconclusive: 0.58 µM [falling, full curve, poor fit] | –

Single values from above.
Cc1occc1C(=O)Nc1sc2c(c1C(N)=O)CCC(C(C)(C)C)C2 (stereo not drawn) – activity change, negative = inhibition: inactive: 7.39%
Cc1cccc(Cn2c(=O)n(-c3ccc(CC(=O)NCc4ccco4)cc3)c(=O)c3sccc32)c1 – activity change, negative = inhibition: inactive: -25.6%
Cc1cc(C)c2oc(C(=O)Nc3ccc(S(=O)(=O)N4CCCC(C)C4)cc3)cc(=O)c2c1 (stereo not drawn) – Potency: inconclusive: 0.58 µM [falling, full curve, poor fit]

Whole records, looked up by structure.
Cc1ccccc1OCC(=O)O/N=C(\N)Cc1cccs1 in the list: Potency: inconclusive: 32.6 µM [activator, single point]
NNC(=O)c1cc2c(N3CCC(Cc4ccccc4)CC3)ncnc2s1 in the list: Potency: active: 25.9 µM
